According to the supplement of paper PMC10735217:
Where a name gives a salt, the structure may show the parent alone. The list shows a part of the results. This data set is noisy: repeats of one test often differ as much as different tests do.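 In a drug-repurposing library screen, luminescence reads luciferase driven by eight TEAD-binding elements, stably integrated into human kidney-derived cells. Compounds scoring over five robust Z scores above the plate mean are called hits.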

Test system: HEK293A TEAD-LUC reporter
Test: TEAD-luciferase reporter activity (YAP activation), robust Z score vs plate; higher = stronger YAP/TEAD activation
Settings: 24 h

SMILES	TEAD-luciferase reporter activity (compound concentration: 200 nM)	TEAD-luciferase reporter activity (compound concentration: 2 uM)	TEAD-luciferase reporter activity (compound concentration: 10 uM)
CCCc1c(OCCCS(=O)(=O)c2ccc(C(=O)CCC(=O)O)cc2)ccc(C(C)=O)c1O	inactive: 1.47	inactive: -1.2	active: 6.18
O=C1CCc2cc(C(=O)N3CCN(Cc4ccccc4)CC3)ccc2N1	inactive: 0.508	inactive: 0.385	inactive: -1.98
CS(=O)(=O)NC(=O)C(c1cccc(OCc2ccc3ccccc3n2)c1)C1CCCCCC1 (stereo not drawn)	inactive: 0.497	inactive: 0.343	inactive: 0.51
OC(CSc1ncnc2[nH]cnc12)CN1CCN(C(c2ccc(F)cc2)c2ccc(F)cc2)CC1 (stereo not drawn)	inactive: 2.34	–	inactive: 4.69
OC(CSc1ncnc2[nH]cnc12)CN1CCN(C(c2ccc(F)cc2)c2ccc(F)cc2)CC1 (stereo not drawn) [carsatrin]	–	inactive: 4.17	–
CCCN1CCCC[C@H]1C(=O)Nc1c(C)cccc1C [Ropivacaine hydrochloride]	inactive: -0.71	–	inactive: -0.645
COc1ccc(C(=O)Nc2c(Cl)cncc2Cl)c2cccnc12	inactive: -0.821	inactive: 0.311	inactive: 0.229
CSCC[C@H](NC(=O)c1ccc(CNCc2c[nH]cn2)cc1-c1ccccc1C)C(=O)O	inactive: -0.537	inactive: 1.23	inactive: 0.434
Cc1c(Cc2ccc(OC(C)C)cc2)c(O[C@@H]2O[C@H](CO)[C@@H](O)[C@H](O)[C@H]2O)nn1C(C)C [Remogliflozin]	inactive: -1.69	inactive: 2.13	inactive: -0.184
Cc1ccc(-n2ccnc2)cc1C(O)c1c(C)cc(C(=O)O)cc1C (stereo not drawn)	inactive: 0.79	inactive: -0.595	inactive: -1.05
CC(C)(Cc1ccc(Oc2ccc(C(N)=O)cn2)cc1)NC[C@H](O)COc1cccc2[nH]c3ccccc3c12	inactive: 1.08	inactive: -1.2	inactive: 0.841
Clc1ccc(Sc2cc(Cl)c(Cl)cc2Cl)cc1 [Tetrasul]	inactive: -1.18	inactive: -0.711	inactive: -1.12
COc1ccc2c(C(=S)N(C)CC(=O)O)cccc2c1C(F)(F)F [tolrestat]	inactive: -1.36	inactive: -1.04	inactive: -1.31
CCOc1ccccc1C(=O)O [2-ethoxybenzoic acid]	inactive: 1.27	inactive: 0.259	inactive: -0.511
CCC(NC(C)C)C(O)c1ccc(O)c(O)c1 (stereo not drawn)	inactive: 0.631	inactive: 0.832	inactive: -0.392
COc1cc(Cc2cnc(N)nc2N)cc(OC)c1SC	inactive: 0.192	inactive: -0.802	inactive: 1.4
CC(C)(O)c1ccccc1CC[C@@H](SCC1(CC(=O)O)CC1)c1cccc(/C=C/c2ccc3ccc(Cl)cc3n2)c1 [Montelukast sodium]	inactive: -0.131	inactive: -0.639	inactive: 1.06
CCCc1c(OCCCOc2ccc(-c3cscn3)c(OC)c2CC2CC2)ccc2c1OC(C(=O)O)CC2 (stereo not drawn)	inactive: -0.338	inactive: -1.41	inactive: -1.53

A second format for some results above:
SMILES | TEAD-luciferase reporter activity (compound concentration: 200 nM) | TEAD-luciferase reporter activity (compound concentration: 2 uM) | TEAD-luciferase reporter activity (compound concentration: 10 uM)
CSCC[C@H](NC(=O)c1ccc(CNCc2c[nH]cn2)cc1-c1ccccc1C)C(=O)O | inactive: -0.537 | inactive: 1.23 | inactive: 0.434
Cc1c(Cc2ccc(OC(C)C)cc2)c(O[C@@H]2O[C@H](CO)[C@@H](O)[C@H](O)[C@H]2O)nn1C(C)C [Remogliflozin] | inactive: -1.69 | inactive: 2.13 | inactive: -0.184
Cc1ccc(-n2ccnc2)cc1C(O)c1c(C)cc(C(=O)O)cc1C (stereo not drawn) | inactive: 0.79 | inactive: -0.595 | inactive: -1.05
CC(C)(Cc1ccc(Oc2ccc(C(N)=O)cn2)cc1)NC[C@H](O)COc1cccc2[nH]c3ccccc3c12 | inactive: 1.08 | inactive: -1.2 | inactive: 0.841
Clc1ccc(Sc2cc(Cl)c(Cl)cc2Cl)cc1 [Tetrasul] | inactive: -1.18 | inactive: -0.711 | inactive: -1.12
COc1ccc2c(C(=S)N(C)CC(=O)O)cccc2c1C(F)(F)F [tolrestat] | inactive: -1.36 | inactive: -1.04 | inactive: -1.31
CCOc1ccccc1C(=O)O [2-ethoxybenzoic acid] | inactive: 1.27 | inactive: 0.259 | inactive: -0.511
CCC(NC(C)C)C(O)c1ccc(O)c(O)c1 (stereo not drawn) | inactive: 0.631 | inactive: 0.832 | inactive: -0.392
COc1cc(Cc2cnc(N)nc2N)cc(OC)c1SC | inactive: 0.192 | inactive: -0.802 | inactive: 1.4

(cont.)

SMILES	TEAD-luciferase reporter activity (compound concentration: 200 nM)	TEAD-luciferase reporter activity (compound concentration: 2 uM)	TEAD-luciferase reporter activity (compound concentration: 10 uM)
CN[C@H](CNC(=O)N1CCC[C@@H]([C@@H](OCCNC(=O)OC)c2cccc(Cl)c2)C1)C[C@H]1CCCOC1	inactive: -0.263	inactive: -0.546	inactive: -1.01
C[C@H](CN(C(=O)c1ccc(C#N)cc1)c1ccccn1)N1CCN(c2cccc3c2OCCO3)CC1 [lecozotan hydrochloride]	inactive: 3.11	inactive: 0.288	inactive: -0.332
CCc1ccc2occ(-c3nn[nH]n3)c(=O)c2c1	inactive: -1.64	–	inactive: -0.4
Cc1ccccc1C(OCCN(C)C)c1ccccc1 (stereo not drawn) [Orphenadrine (citrate)]	inactive: -2.27	inactive: -0.874	inactive: -0.117
CCn1c2c(c3ccccc31)CCSC2(C)CCN(C)C (stereo not drawn) [tandamine]	inactive: -1.37	inactive: 0.397	inactive: 3.29
C[C@@H](C(=O)Nc1ccc(Cl)cc1)[C@H]1CC[C@@H](c2ccnc3ccc(F)cc32)CC1	inactive: -1.54	–	inactive: -1.28
O=C(O)CCCCCCCC(=O)O	inactive: -0.359	–	inactive: 1.69
O=C(O)CCCCCCCC(=O)O [Azelaic acid]	–	inactive: -0.893	–
CCn1c(=O)/c(=C2\Sc3ccccc3N2C)s/c1=C/c1cccc[n+]1CC	inactive: -0.0162	inactive: 0.42	inactive: -0.41
O=c1[nH]c2ccc([S+]([O-])CCN3CCC(Cc4ccc(F)cc4)CC3)cc2o1 (stereo not drawn)	inactive: -0.0274	inactive: 0.00705	inactive: 0.361
CCCCC[C@H](O)/C=C/[C@@H]1[C@@H](C/C=C\CCCC(=O)O)[C@H](O)C[C@H]1O	inactive: -0.54	–	inactive: 1.48
CCCCC[C@H](O)/C=C/[C@@H]1[C@@H](C/C=C\CCCC(=O)O)[C@H](O)C[C@H]1O [dinoprost]	–	inactive: 0.0653	–
CC(C)=CCC[C@](C)(O[C@@H]1O[C@H](CO)[C@@H](O)[C@H](O)[C@H]1O)[C@H]1CC[C@]2(C)[C@@H]1[C@H](O)C[C@@H]1[C@@]3(C)CC[C@H](O[C@@H]4O[C@H](CO)[C@@H](O)[C@H](O)[C@H]4O[C@@H]4O[C@H](CO)[C@@H](O)[C@H](O)[C@H]4O)C(C)(C)[C@@H]3CC[C@]12C [Ginsenoside Rd]	inactive: -0.413	inactive: -0.164	inactive: 3.67
CC(=O)Nc1ccc(OC(=O)CCCO[N+](=O)[O-])cc1 [Nitroparacetamol]	inactive: -0.86	inactive: -1.16	inactive: -0.0936
C[N+](C)(C)C[C@H](N)CC(=O)O	inactive: -0.448	inactive: -2.02	inactive: -0.224
CONC(=N)c1ccc(-c2ccc(-c3ccc(C(=N)NOC)cc3)o2)cc1 [pafuramidine]	inactive: 0.271	active: 5.76	inactive: 3.86
COC(=O)c1nc(C(F)(F)F)n2c1CN(C(=O)CC(N)Cc1cc(F)c(F)cc1F)CC2 (stereo not drawn)	inactive: -1.48	inactive: -1.73	inactive: 0.584
